Data as given in PubChem BioAssay AID1259285 (Sanger Institute, 2017).
Here is one part, drawn at random, of 794 reagents tested. 20 of them (2.5%) count as active. 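Calls rest on the drug-free arm alone and ignore synergy scores; viability ratios seem to be capped at 1.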 Not stated in the record: the amount of reagent, the time to read-out.

Test: 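Search of the kinome for kinases worth combining with drugs in colon cancer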 (primary screen)
Cell system: human HCC56 colorectal cancer cells
Reagent: siRNA pool against human genes
Treatment: DMSO vehicle, or anchor drug BYL719 at 1 µM, cetuximab at 5 µg/ml, or trametinib at 10 nM
Read-out: 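Viability as a ratio to non-targeting pool wells, averaged over replicates and turned into a robust z-score; synergy scores with BYL719, cetuximab or trametinib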
Reading the numbers: viability robust z-score, no drug: higher = more viable cells, weaker knock-down effect; viability vs non-targeting pool, no drug: higher = more viable cells; synergy score with BYL719: higher = stronger combined killing with BYL719; synergy score with cetuximab: higher = stronger combined killing with cetuximab; synergy score with trametinib: higher = stronger combined killing with trametinib
Active means: 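a knock-down counts as essential if its viability z-score without drug is under -3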
Calls: active = essential without drug; inactive = no change without drug

| gene symbol | viability robust z-score, no drug | viability vs non-targeting pool, no drug | synergy score with BYL719 | synergy score with cetuximab | synergy score with trametinib | outcome |
| --- | --- | --- | --- | --- | --- | --- |
| ITPKB | 0.458 | 1 | -0.146 | -0.142 | -0.131 | inactive |
| AURKA | -0.975 | 0.877 | 0.0374 | 0.0318 | 0.0624 | inactive |
| PIK3R3 | 0.458 | 1 | -0.162 | -0.142 | -0.0344 | inactive |
| NEK2 | 0.458 | 1 | -0.0713 | -0.00828 | 0.0278 | inactive |
| MAP4K3 | 0.289 | 0.985 | 0.0485 | 0.146 | 0.0363 | inactive |
| PRKX | 0.458 | 1 | -0.162 | -0.142 | -0.00362 | inactive |
| STK40 | -0.594 | 0.91 | -0.0619 | -0.135 | -0.109 | inactive |
| PRKG2 | 0.458 | 1 | -0.133 | -0.0644 | 0.0186 | inactive |
| CLK3 | 0.458 | 1 | 0.0158 | -0.0945 | 0.0441 | inactive |
| MAP3K3 | -1.09 | 0.867 | -0.201 | -0.217 | -0.0499 | inactive |
| BMPR1B | 0.458 | 1 | -0.118 | -0.142 | -0.166 | inactive |
| POMK | 0.458 | 1 | -0.162 | -0.142 | -0.0701 | inactive |
| PRKCD | 0.458 | 1 | -0.0335 | -0.142 | -0.0102 | inactive |
| ACO1 | 0.458 | 1 | -0.0843 | -0.0643 | 0.0406 | inactive |
| EIF2AK2 | 0.458 | 1 | -0.0218 | -0.142 | 0.00763 | inactive |
| VRK2 | 0.0361 | 0.964 | -0.0749 | -0.0892 | -0.0746 | inactive |
| PI4K2A | 0.458 | 1 | -0.0673 | -0.142 | -0.0288 | inactive |
| PBK | 0.458 | 1 | -0.156 | -0.112 | -0.0492 | inactive |
| CHD4 | -3.96 | 0.62 | 0.0147 | 0.106 | -0.0331 | active |
| MAPK8 | 0.458 | 1 | -0.133 | -0.142 | -0.0815 | inactive |
| RPS6KA3 | 0.458 | 1 | -0.0139 | -0.142 | -0.0562 | inactive |
| ROCK1 | 0.458 | 1 | -0.162 | -0.142 | -0.0226 | inactive |
| ROCK2 | 0.458 | 1 | -0.133 | -0.142 | 0.0947 | inactive |
| MAP2K2 | -0.834 | 0.889 | -0.112 | -0.0737 | -0.0958 | inactive |
| PCBP1 | 0.458 | 1 | -0.132 | -0.142 | 0.016 | inactive |
| N4BP2 | 0.458 | 1 | -0.144 | -0.142 | -0.063 | inactive |
| PLK3 | 0.458 | 1 | -0.0666 | -0.142 | -0.066 | inactive |
| PSKH2 | 0.458 | 1 | -0.0157 | 0.0249 | 0.165 | inactive |
| NME4 | 0.458 | 1 | -0.162 | -0.142 | -0.208 | inactive |
| PRKD3 | 0.458 | 1 | -0.0664 | -0.142 | 0.0106 | inactive |
| PDGFRA | 0.458 | 1 | -0.0593 | -0.142 | -0.0527 | inactive |
| KALRN | 0.458 | 1 | -0.138 | -0.142 | -0.0265 | inactive |
| HCK | -1.37 | 0.843 | -0.0112 | -0.13 | -0.0371 | inactive |
| PTK2 | 0.458 | 1 | 0.0038 | 0.0944 | 0.0229 | inactive |
| STK38 | 0.458 | 1 | 0.0688 | -0.0601 | 0.154 | inactive |
| PKLR | 0.458 | 1 | -0.162 | -0.142 | -0.112 | inactive |
| ULK3 | 0.458 | 1 | -0.125 | -0.142 | -0.11 | inactive |
| RIOK2 | 0.458 | 1 | -0.0955 | -0.142 | 0.000926 | inactive |
| CUL1 | 0.458 | 1 | -0.162 | -0.142 | -0.0683 | inactive |
| ACVR1 | -0.23 | 0.941 | 0.0531 | -0.0522 | -0.0464 | inactive |
| MECOM | 0.458 | 1 | -0.162 | -0.142 | -0.0304 | inactive |
| MAPK4 | 0.458 | 1 | 0.12 | 0.16 | 0.171 | inactive |
| DTYMK | 0.458 | 1 | -0.156 | -0.142 | -0.0187 | inactive |
| XYLB | 0.458 | 1 | -0.00345 | 0.00939 | 0.0494 | inactive |
| ALPK1 | 0.458 | 1 | -0.162 | -0.142 | -0.0655 | inactive |
| STKLD1 | -1.87 | 0.8 | 0.0536 | 0.0792 | 0.0186 | inactive |
| CDK7 | -0.241 | 0.94 | 0.05 | -0.109 | 0.0233 | inactive |
| PKN2 | -0.0418 | 0.957 | 0.0535 | 0.0437 | 0.129 | inactive |
| NIM1K | 0.458 | 1 | -0.105 | -0.0727 | -0.0417 | inactive |
| MST1R | 0.458 | 1 | -0.0669 | -0.0581 | 0.0112 | inactive |

Part of the list above, reduced to “synergy score with cetuximab”:
PDGFRA: -0.142
KALRN: -0.142
HCK: -0.13
PTK2: 0.0944
